In paper doi:10.1101/2024.02.29.582781 (bioRxiv, 2024):

Tests used:
[1] = target: T1, CoxG homologue Saci_1119, C-terminally HA-tagged (Sulfolobus acidocaldarius DSM 639) (UniProt Q4J9R0); assay: affinity purification with mass spectrometry
T1 sequence: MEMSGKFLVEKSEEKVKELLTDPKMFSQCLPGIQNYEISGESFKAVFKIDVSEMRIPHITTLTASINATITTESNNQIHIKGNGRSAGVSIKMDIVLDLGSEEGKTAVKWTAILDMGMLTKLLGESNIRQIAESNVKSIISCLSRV

[2] = target: T2, CoxG homologue Saci_2031, C-terminally HA-tagged (Sulfolobus acidocaldarius DSM 639) (UniProt Q4J7A4); assay: affinity purification with mass spectrometry
T2 sequence: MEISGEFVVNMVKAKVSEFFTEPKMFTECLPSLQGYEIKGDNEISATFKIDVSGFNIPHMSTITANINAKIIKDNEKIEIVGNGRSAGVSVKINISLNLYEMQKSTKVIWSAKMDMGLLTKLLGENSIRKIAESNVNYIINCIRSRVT

binding [1]: binds
B1: glycerol-3-phosphate dehydrogenase Saci_1118, N-terminally His-tagged (enzyme, Sulfolobus acidocaldarius DSM 639, UniProt Q4J9Q8 1-428, looked up)
chain: MKQNSSVIVIGGGATGLFTALDLSLRGINVTLVERGDIASGTSGKFHGLLHSGARYAVNDPESAKECKQENEVLSKIAPEFVRDTGGVFVGITEDDVNYSQRFLSALNSLGITNKVMDVEELIRREPFINKKSKIAIWVPDKVVYGYDLLATVALTASLNGAKILTYNEVKRVLREGNSVRRVEVKDNISGETKILNGDIIVNTAGPWAFRVIEMAGLGEIPLLPTAGIMVVMKEKLNSMVINRLRPPSDGDIIVPYGDSSIIGTTATIIPDPDNFEISDEDINMLIEEGAYMIPRLKEVKPERAYASVRPLIKNAEDGRGATRDFMIIDHEKVDSLDGLISVIGGKFTTSRLAGEKVSDMVSEKLGIREKSKTATIKLMSELDEKLLEKKRVPKVLVKMIRERKGSLDEDRYSTAMYILLSLLARGE

binding [2]: binds
B2: glycerol-3-phosphate dehydrogenase Saci_2032, N-terminally His-tagged (enzyme, Sulfolobus acidocaldarius DSM 639, UniProt Q4J7A2 1-431, looked up)
chain: MEIKTSVLVIGGGANGLFTALDLALRGIDVTLVERRDIGSGTSGRFHGLLHSGARYAVTDPESAKECIQENNIISKIAPHAIRDTGGLFLGITKEDLEFLDKFLSSLKKLGIEHKIVDNNQVLQEEPYVNKDLKIAIWVPDKVVYGYDLLSSIAVTGSLNKARIMTYNEVTEFIRDGNSIKGVKVFDKITNQMNLIKSDIIINTSGPWAFKIITMAGLEEIPILPTAGIMAVFGKKVNNAVLNRLRPPSDGDIIVPYQDTSILGTTATIIEDPDNFTISDEDVKMLIKEGSQLVPELSKTRVIRTYASVRPLMRTSEDGRKASRDFTILDHEREDGVSGLISIIGGKFTTSRLVGEKVGDLVSEKLGVRAKSKTKETKLISPSEIDFEKYLEKIGISKIFLKSVMERRGSLDEERYKTVLYLLLSLIARGR

These are yes or no findings as the source states them, for the method shown. Binding seen in cells or lysates may run through a third protein. These calls come from enrichment with a bait or labelling near it, and not all partners need be listed. Sequences can lack the tags named with a protein. One block for each binder: values may come before it.
